Results are given in words; binding and its absence hold for the method and conditions named. Binding seen in cells or lysates may run through a third protein. A yes stands for co-enrichment or nearness to the bait. Other partners may have been found.
Target: high-mobility group AT-hook 2 (HMGA2) (human (endogenous in A549)) (UniProt P52926)
Assay: affinity purification with mass spectrometry; co-IP in A549 cells using anti-HMGA2 antibody, followed by mass spectrometry

By UniProt entry, the sequences of proteins in these tests, tags left out.
UniProt P52926: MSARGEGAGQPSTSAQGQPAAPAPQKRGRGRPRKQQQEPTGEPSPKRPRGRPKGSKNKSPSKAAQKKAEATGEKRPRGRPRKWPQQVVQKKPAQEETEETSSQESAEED
UniProt P40763: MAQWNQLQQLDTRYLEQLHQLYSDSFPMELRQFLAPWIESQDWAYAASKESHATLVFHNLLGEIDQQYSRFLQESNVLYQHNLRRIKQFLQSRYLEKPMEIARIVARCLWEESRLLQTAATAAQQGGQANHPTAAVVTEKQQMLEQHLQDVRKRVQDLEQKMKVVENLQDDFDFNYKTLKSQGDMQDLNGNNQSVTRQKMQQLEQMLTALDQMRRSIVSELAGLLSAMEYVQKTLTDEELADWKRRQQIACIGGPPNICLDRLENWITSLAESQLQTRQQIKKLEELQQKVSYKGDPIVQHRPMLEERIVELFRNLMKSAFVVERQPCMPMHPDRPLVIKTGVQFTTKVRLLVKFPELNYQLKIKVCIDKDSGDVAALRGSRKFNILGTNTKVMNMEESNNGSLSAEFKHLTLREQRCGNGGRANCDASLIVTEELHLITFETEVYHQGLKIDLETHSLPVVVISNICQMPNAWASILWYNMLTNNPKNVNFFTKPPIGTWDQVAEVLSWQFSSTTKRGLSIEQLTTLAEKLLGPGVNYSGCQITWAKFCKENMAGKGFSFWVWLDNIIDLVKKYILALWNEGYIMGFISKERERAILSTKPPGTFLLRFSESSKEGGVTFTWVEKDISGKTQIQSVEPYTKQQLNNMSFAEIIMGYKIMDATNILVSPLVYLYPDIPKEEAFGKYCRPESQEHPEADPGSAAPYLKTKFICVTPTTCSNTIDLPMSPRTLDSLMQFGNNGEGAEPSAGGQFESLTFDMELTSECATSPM
UniProt Q15672: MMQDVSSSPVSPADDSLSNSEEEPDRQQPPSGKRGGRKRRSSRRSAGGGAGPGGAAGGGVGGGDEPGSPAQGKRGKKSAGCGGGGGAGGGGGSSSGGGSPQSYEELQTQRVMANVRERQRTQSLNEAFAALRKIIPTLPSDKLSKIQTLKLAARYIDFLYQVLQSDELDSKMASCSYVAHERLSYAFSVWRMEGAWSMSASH

Substance | binding
STAT3 (from UniProt P40763 1-770) | binds
Twist1 (from UniProt Q15672 1-202) | binds
